Data as given in patent publication US20050164182A1, “Nucleotide analogues” (priority 2001, published 2005).
At least one compound was matched to its structure with a doubt left.

System: Thermosequenase
Experiment: Primer extension reactions: incorporation of fluorescently labelled deoxynucleotide triphosphates by DNA polymerase
Type: biochemical
Conditions: number of consecutive fluor-labelled nucleotides added; templates with 2, 3 or 8 consecutive A residues; 48° C. for 45 minutes

## O=C1OC2(c3ccc(O)cc3Oc3cc(O)ccc32)c2ccccc21 [Fluorescein, Fluorescein-12-dUTP]
  predominant product with templates 3, 4 and 5: One addition, with minor two additions
